Results from publication doi:10.1101/2021.02.19.431989.
Where two headings read alike, the source gives them in different places. No constants are given. Whether binding was seen depends on the method and setting. Binding seen in cells or lysates may run through a third protein. Some entries that bind do so weakly or less than the wild type. For part of these data: Sequences can lack the tags named with a protein.

By UniProt entry, the sequences of proteins in these tests, tags left out. Where a name states a change or a piece, a line headed by the entry shows the natural chain unless it says otherwise.
UniProt Q14534, whole entry: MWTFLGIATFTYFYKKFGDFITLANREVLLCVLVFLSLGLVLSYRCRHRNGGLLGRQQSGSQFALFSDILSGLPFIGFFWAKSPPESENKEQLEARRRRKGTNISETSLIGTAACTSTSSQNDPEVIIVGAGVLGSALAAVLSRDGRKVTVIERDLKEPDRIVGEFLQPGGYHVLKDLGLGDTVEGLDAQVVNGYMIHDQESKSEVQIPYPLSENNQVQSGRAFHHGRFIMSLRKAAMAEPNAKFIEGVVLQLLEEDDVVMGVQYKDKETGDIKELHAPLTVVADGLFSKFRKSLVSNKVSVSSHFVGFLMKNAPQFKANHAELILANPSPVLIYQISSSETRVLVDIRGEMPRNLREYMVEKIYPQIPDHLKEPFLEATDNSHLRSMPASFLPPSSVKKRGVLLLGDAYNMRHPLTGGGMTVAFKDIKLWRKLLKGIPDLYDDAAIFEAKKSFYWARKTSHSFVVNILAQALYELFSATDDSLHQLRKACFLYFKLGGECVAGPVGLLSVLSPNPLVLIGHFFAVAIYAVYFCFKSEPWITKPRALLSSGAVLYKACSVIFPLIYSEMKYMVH

Experiments:
Assay in all cases: co-IP
[1] = molecular target: T1, lanosterol synthase with C-terminal Myc tag (UniProt P48449)
T1 sequence: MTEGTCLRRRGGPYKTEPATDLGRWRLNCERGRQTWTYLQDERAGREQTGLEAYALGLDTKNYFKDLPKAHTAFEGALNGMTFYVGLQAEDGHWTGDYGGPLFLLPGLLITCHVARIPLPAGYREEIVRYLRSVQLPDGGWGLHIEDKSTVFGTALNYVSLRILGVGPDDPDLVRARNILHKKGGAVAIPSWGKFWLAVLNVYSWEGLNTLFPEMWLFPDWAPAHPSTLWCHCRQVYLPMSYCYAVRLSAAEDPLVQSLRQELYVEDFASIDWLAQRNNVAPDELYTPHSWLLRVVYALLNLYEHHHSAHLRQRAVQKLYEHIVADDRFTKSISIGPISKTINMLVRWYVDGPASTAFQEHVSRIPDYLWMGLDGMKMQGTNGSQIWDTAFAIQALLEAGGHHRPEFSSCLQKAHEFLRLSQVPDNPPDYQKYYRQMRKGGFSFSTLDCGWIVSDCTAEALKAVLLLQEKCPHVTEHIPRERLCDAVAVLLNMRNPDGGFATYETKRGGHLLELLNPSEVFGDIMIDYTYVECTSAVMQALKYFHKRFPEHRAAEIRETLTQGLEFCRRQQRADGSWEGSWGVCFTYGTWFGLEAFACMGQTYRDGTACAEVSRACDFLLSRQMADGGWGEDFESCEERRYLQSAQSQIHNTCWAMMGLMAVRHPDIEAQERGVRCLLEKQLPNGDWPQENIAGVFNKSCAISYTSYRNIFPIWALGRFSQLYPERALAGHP

[2] = molecular target: T2, viperin (virus inhibitory protein, endoplasmic reticulum-associated, interferon-inducible) with N-terminal 3x-FLAG tag (human) (UniProt Q8WXG1)
T2 sequence: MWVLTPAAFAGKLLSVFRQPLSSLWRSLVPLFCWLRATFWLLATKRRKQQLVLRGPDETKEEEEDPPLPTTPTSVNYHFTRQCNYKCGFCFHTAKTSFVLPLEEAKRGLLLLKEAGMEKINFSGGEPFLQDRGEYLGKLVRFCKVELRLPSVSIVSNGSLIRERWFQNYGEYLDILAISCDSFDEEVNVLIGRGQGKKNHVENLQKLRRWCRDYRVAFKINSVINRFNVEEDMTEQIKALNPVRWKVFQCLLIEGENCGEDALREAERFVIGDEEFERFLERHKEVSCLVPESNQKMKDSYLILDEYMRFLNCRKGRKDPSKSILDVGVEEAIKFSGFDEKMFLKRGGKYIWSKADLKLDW

[3] = molecular target: T3, viperin-ΔN50 (truncated viperin lacking the N-terminal 50 residues) (human) (UniProt Q8WXG1)
T3 sequence: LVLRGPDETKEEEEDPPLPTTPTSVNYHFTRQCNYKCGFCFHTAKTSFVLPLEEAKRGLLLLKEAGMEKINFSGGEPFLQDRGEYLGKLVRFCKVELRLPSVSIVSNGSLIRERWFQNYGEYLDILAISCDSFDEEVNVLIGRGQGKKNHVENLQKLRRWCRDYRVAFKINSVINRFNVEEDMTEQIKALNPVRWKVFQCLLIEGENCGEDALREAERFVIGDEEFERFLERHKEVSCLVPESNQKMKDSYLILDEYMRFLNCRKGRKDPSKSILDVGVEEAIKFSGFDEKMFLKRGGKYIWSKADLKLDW

[4] = molecular target: T1, lanosterol synthase with C-terminal Myc tag; remark: listed apart in the source
[5] = molecular target: T2, viperin (virus inhibitory protein, endoplasmic reticulum-associated, interferon-inducible) with N-terminal 3x-FLAG tag (human); remark: listed apart in the source
[6] = molecular target: T3, viperin-ΔN50 (truncated viperin lacking the N-terminal 50 residues) (human); remark: listed apart in the source

Molecule: squalene monooxygenase with C-terminal V5 tag (from UniProt Q14534 1-574) (enzyme)
- binding [1]: binds
- binding [2]: binds
- binding [3]: binds

B1: viperin (virus inhibitory protein, endoplasmic reticulum-associated, interferon-inducible) with N-terminal 3x-FLAG tag (enzyme, UniProt Q8WXG1 1-361)
chain: MWVLTPAAFAGKLLSVFRQPLSSLWRSLVPLFCWLRATFWLLATKRRKQQLVLRGPDETKEEEEDPPLPTTPTSVNYHFTRQCNYKCGFCFHTAKTSFVLPLEEAKRGLLLLKEAGMEKINFSGGEPFLQDRGEYLGKLVRFCKVELRLPSVSIVSNGSLIRERWFQNYGEYLDILAISCDSFDEEVNVLIGRGQGKKNHVENLQKLRRWCRDYRVAFKINSVINRFNVEEDMTEQIKALNPVRWKVFQCLLIEGENCGEDALREAERFVIGDEEFERFLERHKEVSCLVPESNQKMKDSYLILDEYMRFLNCRKGRKDPSKSILDVGVEEAIKFSGFDEKMFLKRGGKYIWSKADLKLDW
- binding [4]: binds

B2: lanosterol synthase with C-terminal Myc tag (enzyme, UniProt P48449 1-732)
chain: MTEGTCLRRRGGPYKTEPATDLGRWRLNCERGRQTWTYLQDERAGREQTGLEAYALGLDTKNYFKDLPKAHTAFEGALNGMTFYVGLQAEDGHWTGDYGGPLFLLPGLLITCHVARIPLPAGYREEIVRYLRSVQLPDGGWGLHIEDKSTVFGTALNYVSLRILGVGPDDPDLVRARNILHKKGGAVAIPSWGKFWLAVLNVYSWEGLNTLFPEMWLFPDWAPAHPSTLWCHCRQVYLPMSYCYAVRLSAAEDPLVQSLRQELYVEDFASIDWLAQRNNVAPDELYTPHSWLLRVVYALLNLYEHHHSAHLRQRAVQKLYEHIVADDRFTKSISIGPISKTINMLVRWYVDGPASTAFQEHVSRIPDYLWMGLDGMKMQGTNGSQIWDTAFAIQALLEAGGHHRPEFSSCLQKAHEFLRLSQVPDNPPDYQKYYRQMRKGGFSFSTLDCGWIVSDCTAEALKAVLLLQEKCPHVTEHIPRERLCDAVAVLLNMRNPDGGFATYETKRGGHLLELLNPSEVFGDIMIDYTYVECTSAVMQALKYFHKRFPEHRAAEIRETLTQGLEFCRRQQRADGSWEGSWGVCFTYGTWFGLEAFACMGQTYRDGTACAEVSRACDFLLSRQMADGGWGEDFESCEERRYLQSAQSQIHNTCWAMMGLMAVRHPDIEAQERGVRCLLEKQLPNGDWPQENIAGVFNKSCAISYTSYRNIFPIWALGRFSQLYPERALAGHP
- binding [5]: binds
- binding [6]: binds
